Data reported in patent US20220050096A1, “ANALYTE-SENSITIVE PROBES AND CONTACT LENS FOR DIAGNOSIS OF OCULAR PATHOLOGIES” (University Of Maryland, Baltimore, priority 2020, published 2022).

Experiment: Chloride quenching (Stern-Volmer) of SPQ-C18 in contact lenses
Assay type: physicochemical
Method: Quenching by Chloride. […] The intensities (I) and lifetimes (6) are analyzed using the Stern-Volmer equation, where F0 and τ0 are the intensities and lifetimes in the absence of chloride, and K is the quenching constant and the inverse of the [Cl^-] needed for 50% quenching. For collisional quenching, the value of F0/F and τ0/τ are typically the same. In solution, in the absence of lenses, the value of K=kq τ0 can be used to calculate the biomolecular quenching constant kq and the quenching efficiency. In the lenses, the [Cl-] may not be the same as in the bulk solution, but kq in the lenses is estimated by assuming the same concentration of chloride around the SPQ moiety in the lenses and in bulk solutions. Chloride-sensitive lenses were prepared using SPQ-C18. The quinolinium moiety in SPQ-C18 can be used for chloride sensing in tears. Its unquenched lifetime near 18.5 ns (see Table 14 and Table 15, below) which results in significant changes up to chloride concentrations of 220 mM, which is well above the physiological range. BiofinityTM and […] lenses labeled with SPQ-C18 were both found to display significant quenching at physiological concentrations of chloride near 120 mM. The emission intensities of SPQ-C18 were quenched by about 50% at this chloride concentration (FIG. 31 and FIG. 32). The emission spectra are not changed by quenching so intensity-based sensing may be different in a realworld application. […] Chloride quenching was analyzed using the Stern-Volmer equation for intensities and lifetimes (equations 7 and 8). In this analysis, we used the average lifetimes (equation 2) that is more appropriate for quenching. […] In contrast quenching of SP-PL, both intensity and lifetime, continue to decrease as the chloride concentration is increased. At the molecular level, the most interesting term is the biomolecular quenching constant kq. This value can be understood by comparison with quenching of a fluorophore in solution without any steric barriers. […]

Compound: CCCCCCCCCCCCCCCCCC[n+]1cccc2cc(OC)ccc21 [SPQ-C18, N-Octadecyl-6-methoxyquinolinium bromide]
- reversibility of chloride quenching (Biofinity and MyDay): completely reversible
- limit of detection of chloride ion (labeled lens): 10 mM
- limit of quantification of chloride ion (labeled lens): 25 mM
